Reference: publication PMC10817417, “New L-Rhamnose-Binding Lectin from the Bivalve Glycymeris yessoensis: Purification, Partial Structural Characterization and Antibacterial Activity” (Marine Drugs, 2023)

Legend:
[1] = test system: T1, GYL-R; assay: hemagglutination inhibition; assay type: cell-based, Glycymeris yessoensis; conditions: 4 agglutination doses of lectin, 2% erythrocytes, 0.01 M TBS, 1 h
T1 construct: native lectin purified from hemolymph plasma; mass 30,415 Da (MALDI-TOF), most likely monomer; N-terminus VNNXQNVDXDSWPFE; tryptic peptides LEYASYGR, YLSVVYTCK, LEAVNSVFGDPCVGTYK, EDTLVCELNTDLLSCEER, VNNCQNVDCDSWPFEYK; biotinylated for glycan array
Source text: hemagglutination inhibition on GYL-R

[2] = test system: T1, GYL-R; assay: glycan microarray, fluorescence; assay type: binding, Glycymeris yessoensis; conditions: glycan immobilised on array; biotinylated GYL-R 50 µg/mL, FITC-streptavidin
Source text: glycan microarray, fluorescence on GYL-R

| Structure (SMILES) | Average RFU [2] | also measured |
| --- | --- | --- |
| OC[C@H]1OC(O)[C@H](O)[C@@H](O)[C@H]1O (stereo partly drawn) [D-Galactose] | – | MIC ^b ([1]; also printed as mM): 156 µg/mL (≈ 866 µM) |
| C[C@@H]1OC(O)[C@H](O)[C@H](O)[C@H]1O (stereo partly drawn) [L-Rhamnose] | – | MIC ^b ([1]; printed mM column reads 0.12, which disagrees with 0.002 mg/mL): 2 µg/mL (≈ 12.2 µM) |
| OC[C@H]1O[C@@H](O[C@H]2[C@H](O)[C@@H](O)C(O)O[C@@H]2CO)[C@H](O)[C@@H](O)[C@H]1O (some centres unmarked) [Lactose] | – | MIC ^b ([1]; also printed as mM): 313 µg/mL (≈ 914 µM) |
| OC[C@H]1O[C@H](OC[C@H]2O[C@H](O[C@]3(CO)O[C@H](CO)[C@@H](O)[C@@H]3O)[C@H](O)[C@@H](O)[C@@H]2O)[C@H](O)[C@@H](O)[C@H]1O [Rafinose] | – | MIC ^b ([1]; also printed as mM): 625 µg/mL (≈ 1240 µM) |
| C[C@@H]1OC(O)[C@H](O)[C@H](O)[C@H]1O (stereo partly drawn) [compound 20, L-Rhaα] | 64,931 RFU | – |
| CC(=O)N[C@H]1C(O)O[C@H](CO)[C@H](O)[C@@H]1O[C@H]1O[C@H](CO)[C@H](O)[C@H](O)[C@H]1O (some centres unmarked) [compound 78, Galα1-3GalNAcα] | 1061 RFU | – |
| CC(=O)N[C@H]1C(O)O[C@H](CO)[C@@H](O[C@H]2O[C@H](CO)[C@H](O)[C@H](O)[C@H]2O)[C@@H]1O (some centres unmarked) [compound 81, Galα1-4GlcNAcβ] | 17,157 RFU | – |
| CC(=O)N[C@H]1C(O)O[C@H](CO)[C@@H](O[C@@H]2O[C@H](CO)[C@H](O)[C@H](O)[C@H]2O)[C@@H]1O (some centres unmarked) [compound 97, Galβ1-4GlcNAcβ] | 735 RFU | – |
| OC[C@H]1O[C@H](O[C@@H]2[C@H](O)[C@@H](O)[C@H](O[C@H]3[C@H](O)[C@@H](O)C(O)O[C@@H]3CO)O[C@@H]2CO)[C@H](O)[C@@H](O)[C@H]1O (some centres unmarked) [compound 223, Galα1-4Galβ1-4Glcβ] | 1245 RFU | – |
| CC(=O)N[C@H]1C(O)O[C@H](CO)[C@@H](O[C@@H]2O[C@H](CO)[C@H](O[C@H]3O[C@H](CO)[C@H](O)[C@H](O)[C@H]3O)[C@H](O)[C@H]2O)[C@@H]1O (some centres unmarked) [compound 266, Galα1-4Galβ1-4GlcNAcβ] | 24,853 RFU | – |
| CC(=O)N[C@H]1C(O)O[C@H](CO)[C@@H](O[C@@H]2O[C@H](CO)[C@H](O[C@H]3O[C@H](CO)[C@H](O)[C@H](O)[C@H]3O)[C@H](O)[C@H]2O[C@@H]2O[C@@H](C)[C@@H](O)[C@@H](O)[C@@H]2O)[C@@H]1O (some centres unmarked) [compound 365, Galα1-4(Fucα1-2)Galβ1-4GlcNAcβ] | 47,673 RFU | – |
| CC(=O)N[C@H]1[C@H](OC[C@H]2O[C@@H](O[C@H]3[C@H](O)[C@@H](NC(C)=O)C(O)O[C@@H]3CO)[C@H](O)[C@@H](O)[C@H]2O)O[C@H](CO)[C@@H](O[C@@H]2O[C@H](CO)[C@H](O)[C@H](O)[C@H]2O)[C@@H]1O (some centres unmarked) [compound 387, Galβ1-4GlcNAcβ1-6Galβ1-4GlcNAcβ] | 1829 RFU | – |
| CC(=O)N[C@H]1C(O)O[C@H](CO)[C@H](O[C@H]2O[C@H](CO)[C@H](O)[C@H](O)[C@H]2O)[C@@H]1O (some centres unmarked) [compound 815, Galα1-4GalNAcα] | 12,517 RFU | – |
| OC[C@H]1O[C@H](O[C@@H]2[C@H](O)[C@@H](O)C(O)O[C@@H]2CO)[C@H](O)[C@@H](O)[C@H]1O (some centres unmarked) [compound 821, Galα1-4Galβ] | 2404 RFU | – |

≈ marks a conversion by molar mass, not a printed value.
